In the experiment the target is prion protein (PrP) (human (endogenous in autopsy pancreas and brain)) (UniProt P04156). Briefly: proximity ligation.

These are yes or no findings as the source states them, for the method shown. Binding seen in cells or lysates may run through a third protein. Some binding calls cover weakened binding; strength is not graded here.

Take “amylin (islet amyloid polypeptide) (from UniProt P10997 34-70)”: the binding entry was “binds”.

B1: chromogranin A (protein, UniProt P10645 19-457)
chain: LPVNSPMNKGDTEVMKCIVEVISDTLSKPSPMPVSQECFETLRGDERILSILRHQNLLKELQDLALQGAKERAHQQKKHSGFEDELSEVLENQSSQAELKEAVEEPSSKDVMEKREDSKEAEKSGEATDGARPQALPEPMQESKAEGNNQAPGEEEEEEEEATNTHPPASLPSQKYPGPQAEGDSEGLSQGLVDREKGLSAEPGWQAKREEEEEEEEEAEAGEEAVPEEEGPTVVLNPHPSLGYKEIRKGESRSEALAVDGAGKPGAEEAQDPEGKGEQEHSQQKEEEEEMAVVPQGLFRGGKSGELEQEEERLSKEWEDSKRWSKMDQLAKELTAEKRLEGQEEEEDNRDSSMKLSFRARAYGFRGPGPQLRRGWRPSSREDSLEAGLPLQVRGYPEEKKEEEGSANRRPEDQELESLSAIEAELEKVAHQLQALRRG
As for B1, the binding result is “no binding”.
